According to the supplement of paper PMC10849652:
Some of the results follow.

Protein sequences, listed by entry. Tags and fused reporters are not part of them. Lines headed by an entry give the natural chain unless they say otherwise; changes in a name come on top.
UniProt Q14696: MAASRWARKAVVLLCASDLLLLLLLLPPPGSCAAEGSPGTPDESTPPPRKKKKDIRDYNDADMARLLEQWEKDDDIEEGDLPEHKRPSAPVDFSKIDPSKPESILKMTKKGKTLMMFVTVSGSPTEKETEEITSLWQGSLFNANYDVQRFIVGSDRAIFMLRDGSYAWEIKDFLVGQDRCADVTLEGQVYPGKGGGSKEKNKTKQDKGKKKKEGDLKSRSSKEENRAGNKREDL
UniProt Q9H8H3: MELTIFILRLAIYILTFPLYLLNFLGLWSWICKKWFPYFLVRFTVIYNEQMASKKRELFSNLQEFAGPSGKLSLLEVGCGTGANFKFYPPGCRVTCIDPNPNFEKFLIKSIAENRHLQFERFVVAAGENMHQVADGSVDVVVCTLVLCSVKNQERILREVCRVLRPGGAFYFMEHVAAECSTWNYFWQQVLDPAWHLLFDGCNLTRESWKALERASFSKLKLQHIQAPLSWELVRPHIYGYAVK
UniProt Q14728: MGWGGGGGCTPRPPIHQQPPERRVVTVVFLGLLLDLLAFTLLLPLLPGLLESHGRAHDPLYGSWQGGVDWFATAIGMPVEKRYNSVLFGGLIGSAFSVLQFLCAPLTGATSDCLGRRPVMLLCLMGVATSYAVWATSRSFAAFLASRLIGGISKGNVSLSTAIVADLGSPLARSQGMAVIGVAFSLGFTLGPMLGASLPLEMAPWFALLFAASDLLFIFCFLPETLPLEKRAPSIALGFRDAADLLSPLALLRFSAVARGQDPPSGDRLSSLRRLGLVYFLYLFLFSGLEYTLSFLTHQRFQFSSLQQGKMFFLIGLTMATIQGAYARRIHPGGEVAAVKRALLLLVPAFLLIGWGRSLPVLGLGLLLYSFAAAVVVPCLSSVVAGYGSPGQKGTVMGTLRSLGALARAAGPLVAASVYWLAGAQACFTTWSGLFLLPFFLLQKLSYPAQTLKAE
UniProt Q9ULK4: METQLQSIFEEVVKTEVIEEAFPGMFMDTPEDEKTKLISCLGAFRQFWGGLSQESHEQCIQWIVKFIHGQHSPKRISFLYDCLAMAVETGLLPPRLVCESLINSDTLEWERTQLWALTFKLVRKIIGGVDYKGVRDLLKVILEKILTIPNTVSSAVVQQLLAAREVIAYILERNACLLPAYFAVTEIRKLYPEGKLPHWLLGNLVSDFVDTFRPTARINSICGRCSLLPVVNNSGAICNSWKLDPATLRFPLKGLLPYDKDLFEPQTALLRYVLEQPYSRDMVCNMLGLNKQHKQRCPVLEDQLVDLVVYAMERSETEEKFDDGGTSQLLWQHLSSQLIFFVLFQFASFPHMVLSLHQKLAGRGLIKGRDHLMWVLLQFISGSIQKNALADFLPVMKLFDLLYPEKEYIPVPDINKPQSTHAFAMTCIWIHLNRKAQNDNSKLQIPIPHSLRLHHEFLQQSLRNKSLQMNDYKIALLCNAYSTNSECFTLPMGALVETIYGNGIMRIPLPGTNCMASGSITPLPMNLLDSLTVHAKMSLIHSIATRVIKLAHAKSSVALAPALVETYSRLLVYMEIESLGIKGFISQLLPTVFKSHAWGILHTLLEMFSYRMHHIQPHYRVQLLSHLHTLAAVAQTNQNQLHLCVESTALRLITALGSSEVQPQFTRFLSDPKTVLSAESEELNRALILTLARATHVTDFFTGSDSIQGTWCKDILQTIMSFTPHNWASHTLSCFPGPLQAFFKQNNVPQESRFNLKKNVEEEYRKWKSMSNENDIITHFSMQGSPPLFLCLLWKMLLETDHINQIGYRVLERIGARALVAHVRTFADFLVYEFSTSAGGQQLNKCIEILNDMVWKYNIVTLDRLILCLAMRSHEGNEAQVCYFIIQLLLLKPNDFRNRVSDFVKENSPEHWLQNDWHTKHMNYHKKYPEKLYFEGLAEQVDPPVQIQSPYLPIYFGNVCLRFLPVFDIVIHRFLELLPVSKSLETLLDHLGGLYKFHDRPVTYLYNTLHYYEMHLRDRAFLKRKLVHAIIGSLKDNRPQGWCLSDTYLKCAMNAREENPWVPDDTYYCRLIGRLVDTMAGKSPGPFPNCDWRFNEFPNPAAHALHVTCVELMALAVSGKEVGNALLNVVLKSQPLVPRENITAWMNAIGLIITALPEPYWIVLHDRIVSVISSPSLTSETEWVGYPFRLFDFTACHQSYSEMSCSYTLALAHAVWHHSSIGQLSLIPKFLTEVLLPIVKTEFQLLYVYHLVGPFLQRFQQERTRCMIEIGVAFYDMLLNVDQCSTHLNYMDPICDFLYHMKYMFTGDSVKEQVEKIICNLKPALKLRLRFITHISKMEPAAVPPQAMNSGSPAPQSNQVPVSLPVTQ
UniProt Q9GZY8: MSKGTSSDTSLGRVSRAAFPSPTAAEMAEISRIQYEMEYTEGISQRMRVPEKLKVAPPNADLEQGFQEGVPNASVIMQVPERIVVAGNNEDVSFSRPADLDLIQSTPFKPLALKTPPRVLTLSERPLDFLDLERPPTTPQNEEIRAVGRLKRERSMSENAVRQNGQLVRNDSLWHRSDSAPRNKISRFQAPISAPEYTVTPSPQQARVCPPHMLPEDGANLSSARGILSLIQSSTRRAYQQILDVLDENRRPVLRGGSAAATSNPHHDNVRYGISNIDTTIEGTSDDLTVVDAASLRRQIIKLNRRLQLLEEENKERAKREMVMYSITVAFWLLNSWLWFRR
UniProt Q14814: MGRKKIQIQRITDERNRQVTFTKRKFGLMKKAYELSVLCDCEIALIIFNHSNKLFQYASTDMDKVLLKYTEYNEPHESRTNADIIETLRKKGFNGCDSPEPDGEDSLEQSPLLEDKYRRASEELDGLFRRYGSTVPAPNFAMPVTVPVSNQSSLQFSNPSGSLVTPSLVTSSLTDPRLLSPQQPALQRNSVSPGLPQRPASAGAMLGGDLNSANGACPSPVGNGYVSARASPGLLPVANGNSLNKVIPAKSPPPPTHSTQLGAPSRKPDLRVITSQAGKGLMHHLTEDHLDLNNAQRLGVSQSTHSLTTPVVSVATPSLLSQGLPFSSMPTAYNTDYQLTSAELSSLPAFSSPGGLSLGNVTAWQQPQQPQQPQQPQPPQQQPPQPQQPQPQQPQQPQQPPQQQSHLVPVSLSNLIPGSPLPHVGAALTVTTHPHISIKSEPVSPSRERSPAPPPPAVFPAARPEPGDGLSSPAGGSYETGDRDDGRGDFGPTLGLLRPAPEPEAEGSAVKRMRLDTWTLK
UniProt Q9HCE5: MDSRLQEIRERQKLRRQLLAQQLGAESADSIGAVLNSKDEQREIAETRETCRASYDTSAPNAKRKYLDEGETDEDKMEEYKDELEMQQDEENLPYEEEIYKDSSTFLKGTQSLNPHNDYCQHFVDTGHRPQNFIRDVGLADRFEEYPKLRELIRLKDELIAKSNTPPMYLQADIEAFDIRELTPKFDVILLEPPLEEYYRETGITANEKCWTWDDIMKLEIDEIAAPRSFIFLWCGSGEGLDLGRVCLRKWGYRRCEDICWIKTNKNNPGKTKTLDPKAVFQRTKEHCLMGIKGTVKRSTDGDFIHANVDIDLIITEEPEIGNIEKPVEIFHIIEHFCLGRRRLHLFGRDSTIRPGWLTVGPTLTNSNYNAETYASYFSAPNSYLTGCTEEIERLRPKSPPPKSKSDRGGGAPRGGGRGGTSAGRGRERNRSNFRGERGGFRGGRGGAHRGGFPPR
UniProt P40925: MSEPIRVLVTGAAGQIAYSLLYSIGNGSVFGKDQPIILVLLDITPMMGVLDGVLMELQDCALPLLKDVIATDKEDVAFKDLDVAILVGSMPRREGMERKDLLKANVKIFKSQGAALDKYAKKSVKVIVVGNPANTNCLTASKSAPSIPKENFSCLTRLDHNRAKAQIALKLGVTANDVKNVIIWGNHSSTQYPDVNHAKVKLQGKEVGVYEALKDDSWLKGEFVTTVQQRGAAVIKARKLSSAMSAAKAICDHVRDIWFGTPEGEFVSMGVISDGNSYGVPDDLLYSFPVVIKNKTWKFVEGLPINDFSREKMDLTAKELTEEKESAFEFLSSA
UniProt O95568: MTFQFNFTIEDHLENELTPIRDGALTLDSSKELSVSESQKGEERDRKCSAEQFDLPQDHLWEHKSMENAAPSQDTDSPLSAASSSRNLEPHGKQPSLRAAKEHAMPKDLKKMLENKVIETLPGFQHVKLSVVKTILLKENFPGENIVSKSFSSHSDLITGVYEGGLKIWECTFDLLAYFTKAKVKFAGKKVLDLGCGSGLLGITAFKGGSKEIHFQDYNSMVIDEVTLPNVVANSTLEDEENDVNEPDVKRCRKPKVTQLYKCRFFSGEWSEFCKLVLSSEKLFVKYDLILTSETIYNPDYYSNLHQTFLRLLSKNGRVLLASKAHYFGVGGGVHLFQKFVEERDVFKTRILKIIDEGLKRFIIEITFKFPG
UniProt P51608, whole entry, looked up: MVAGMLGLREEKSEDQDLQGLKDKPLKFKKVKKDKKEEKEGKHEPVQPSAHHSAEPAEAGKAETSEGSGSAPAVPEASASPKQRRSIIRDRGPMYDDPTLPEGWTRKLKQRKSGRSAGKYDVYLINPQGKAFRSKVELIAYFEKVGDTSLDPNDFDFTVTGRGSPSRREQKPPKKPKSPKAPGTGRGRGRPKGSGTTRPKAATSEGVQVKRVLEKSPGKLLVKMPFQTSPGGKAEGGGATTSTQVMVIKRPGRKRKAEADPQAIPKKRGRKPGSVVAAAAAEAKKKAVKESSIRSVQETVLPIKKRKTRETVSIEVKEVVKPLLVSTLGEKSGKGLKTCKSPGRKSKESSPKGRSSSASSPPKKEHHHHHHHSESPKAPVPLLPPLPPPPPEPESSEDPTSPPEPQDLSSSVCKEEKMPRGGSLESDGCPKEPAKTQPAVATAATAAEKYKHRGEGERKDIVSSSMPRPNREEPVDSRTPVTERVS
UniProt P55081: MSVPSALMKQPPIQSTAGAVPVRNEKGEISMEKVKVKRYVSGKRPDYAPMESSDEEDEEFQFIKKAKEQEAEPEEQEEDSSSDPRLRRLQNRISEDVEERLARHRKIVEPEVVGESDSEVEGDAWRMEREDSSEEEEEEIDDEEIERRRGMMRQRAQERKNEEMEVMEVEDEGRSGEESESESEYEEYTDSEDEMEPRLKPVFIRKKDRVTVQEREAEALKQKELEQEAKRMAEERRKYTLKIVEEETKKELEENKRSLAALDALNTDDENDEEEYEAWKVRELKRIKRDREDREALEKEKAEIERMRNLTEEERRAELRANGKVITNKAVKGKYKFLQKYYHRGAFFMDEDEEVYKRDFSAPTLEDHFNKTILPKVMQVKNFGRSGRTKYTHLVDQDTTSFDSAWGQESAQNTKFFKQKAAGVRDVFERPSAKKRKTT
UniProt Q8N6Q8: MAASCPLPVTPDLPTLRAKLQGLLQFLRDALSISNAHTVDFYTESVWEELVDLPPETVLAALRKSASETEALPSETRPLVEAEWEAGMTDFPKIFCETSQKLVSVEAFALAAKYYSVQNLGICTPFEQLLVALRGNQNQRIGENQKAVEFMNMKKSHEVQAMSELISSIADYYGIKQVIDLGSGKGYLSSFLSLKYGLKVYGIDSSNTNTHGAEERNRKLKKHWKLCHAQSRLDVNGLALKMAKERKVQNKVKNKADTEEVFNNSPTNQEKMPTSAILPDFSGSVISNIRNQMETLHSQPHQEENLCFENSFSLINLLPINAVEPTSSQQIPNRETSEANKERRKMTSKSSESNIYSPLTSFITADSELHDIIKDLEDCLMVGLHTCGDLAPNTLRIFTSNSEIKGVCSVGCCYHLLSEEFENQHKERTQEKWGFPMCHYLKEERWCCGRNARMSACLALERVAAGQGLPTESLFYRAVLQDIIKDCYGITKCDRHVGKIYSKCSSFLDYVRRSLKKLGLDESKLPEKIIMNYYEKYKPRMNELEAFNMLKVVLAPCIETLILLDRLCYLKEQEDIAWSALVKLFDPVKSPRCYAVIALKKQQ
UniProt Q8NE86: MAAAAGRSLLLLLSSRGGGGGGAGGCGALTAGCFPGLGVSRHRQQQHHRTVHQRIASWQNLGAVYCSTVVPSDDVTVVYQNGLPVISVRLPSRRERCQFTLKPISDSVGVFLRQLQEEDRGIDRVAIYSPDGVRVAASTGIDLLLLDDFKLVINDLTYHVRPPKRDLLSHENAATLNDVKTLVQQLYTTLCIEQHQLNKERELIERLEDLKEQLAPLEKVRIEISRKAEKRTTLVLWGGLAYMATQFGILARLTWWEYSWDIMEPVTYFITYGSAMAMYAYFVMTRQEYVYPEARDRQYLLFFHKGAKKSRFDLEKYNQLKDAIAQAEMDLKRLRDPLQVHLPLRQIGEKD

How the values were obtained:
Test in all cases: log2 fold change, soluble protein after heating vs DMSO (PISA); higher = thermal stabilisation; K562 cells, 10 uM, 30 min; active = over 0.2 and 3.5 SD of the protein, either way, in both replicates (recomputed)
[1] = compound: CC1=C(C=C(C=C1)NC(=O)C2=CC(=CC=C2)C(C)(C)C#N)NC3=CC4=C(C=C3)N=CN(C4=O)C
Procedure, shortened: (§1)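 Thermal stability values are relative to control samples and come from duplicates. They are expressed as log2 fold changes. For measurement, K562 cells (2×10^6 cells/mL) received 10 μM compound for 30 min, and aliquots were heated for 3 min over 48°C-58°C, pooled, and extracted at 4°C in PBS with 0.5% NP-40. Soluble protein, the supernatant after 21,000xg for 90 min, was quantified by TMTpro 16plex LC-MS/MS with equalised channel sums.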

[2] = compound: CC1=C(C=C(C=C1)NC(=O)C2=CC(=CC=C2)N(C)C)NC(=O)C3=CC=C(C=C3)O
Procedure, shortened: as §1

[3] = compound: CC1=CC=C(C=C1)SC2=C3C=C(SC3=CN=C2)C(=O)N
Procedure, shortened: as §1

[4] = compound: CC1=NC(=CC=C1)C2=C(N=C(N2)C(C)(C)C)C3=CC4=NC=CN=C4C=C3
Procedure, shortened: as §1

Nexturastat A = compound: CCCCN(Cc1ccc(C(=O)NO)cc1)C(=O)Nc1ccccc1 [Nexturastat A]
Procedure, shortened: as §1

vemurafenib = compound: CCCS(=O)(=O)Nc1ccc(F)c(C(=O)c2c[nH]c3ncc(-c4ccc(Cl)cc4)cc23)c1F [vemurafenib]
Procedure, shortened: as §1

[5] = compound: CCCS(=O)(=O)Nc1ccc(F)c(C(=O)c2c[nH]c3ncc(Cl)cc23)c1F
Procedure, shortened: as §1

[6] = compound: CCCc1cc(C)[nH]c(=O)c1CNC(=O)c1cc(-c2ccnc(N3CCN(C)CC3)c2)cc2c1cnn2C(C)C
Procedure, shortened: as §1

givinostat = compound: CCN(CC)Cc1ccc2cc(COC(=O)Nc3ccc(C(=O)NO)cc3)ccc2c1 [givinostat]
Procedure, shortened: as §1

barasertib = compound: CCN(CCCOc1ccc2c(Nc3cc(CC(=O)Nc4cccc(F)c4)[nH]n3)ncnc2c1)CCOP(=O)(O)O [barasertib]
Procedure, shortened: as §1

[7] = compound: CC[C@@H]1C(=O)N(C)c2cnc(Nc3ccc(C(=O)NC4CCN(C)CC4)cc3OC)nc2N1C1CCCC1
Procedure, shortened: as §1

volasertib = compound: CC[C@@H]1C(=O)N(C)c2cnc(Nc3ccc(C(=O)N[C@H]4CC[C@H](N5CCN(CC6CC6)CC5)CC4)cc3OC)nc2N1C(C)C [volasertib]
Procedure, shortened: as §1

[8] = compound: CC[C@H](C)N1C=C(C2=C(C=C(C=C21)C3=CN=C(C=C3)N4CCNCC4)C(=O)NCC5=C(C=C(NC5=O)C)C)C
Procedure, shortened: as §1

epoxomicin = compound: CC[C@H](C)[C@@H](C(=O)N[C@@H]([C@@H](C)O)C(=O)N[C@@H](CC(C)C)C(=O)[C@]1(CO1)C)NC(=O)[C@H]([C@@H](C)CC)N(C)C(=O)C [epoxomicin]
Procedure, shortened: as §1

[9] = compound: CCn1c(C(=O)N(C2CC2)C2CC2)cc2c3c(ncn3C)c(Nc3cc(C)n(C)n3)nc21
Procedure, shortened: as §1

[10] = compound: CCn1cc(-c2ccnc3[nH]c(-c4cccc(CN(C)C)c4)cc23)c(-c2ccc(NC(=O)N(C)C)cc2)n1
Procedure, shortened: as §1

[11] = compound: CN(C)CC(=O)Nc1ccc2[nH]c(=O)c3ccccc3c2c1
Procedure, shortened: as §1

rosiglitazone = compound: CN(CCOC1=CC=C(C=C1)C[C@H]2C(=O)NC(=O)S2)C3=CC=CC=N3 (racemic) [rosiglitazone]
Procedure, shortened: as §1

[12] = compound: CN1C2=C(C3=C1C(=O)N(N=C3)CC4=CC(=CC=C4)N)SC(=C2)S(=O)C
Procedure, shortened: as §1

[13] = compound: CN1CCC(CNc2ccc3ncc(-c4cccc(OC(F)(F)F)c4)n3n2)CC1
Procedure, shortened: as §1

Measured: log2 fold change

MESD (UniProt Q14696)
inactive: [1] -0.028 | [2] 0.005 | [3] 0.028 | [4] -0.008 | Nexturastat A -0.112 | vemurafenib -0.018 | [5] -0.012 | [6] -0.021 | givinostat -0.018 | barasertib 0.002 | [7] 0.025 | volasertib 0.01 | [8] -0.003 | epoxomicin 0 | [9] 0.028 | [10] 0.01 | [11] -0.023 | rosiglitazone 0.007 | [12] 0.003 | [13] 0.045

METTL7A (UniProt Q9H8H3)
inactive: [1] 0.026 | [2] -0.052 | [3] -0.01 | [4] -0.002 | Nexturastat A -0.025 | vemurafenib -0.023 | [5] 0 | [6] -0.003 | givinostat 0.007 | barasertib -0.067 | [7] 0.013 | volasertib 0.04 | [8] -0.012 | epoxomicin -0.006 | [9] 0 | [10] -0.019 | [11] 0.046 | rosiglitazone 0.017 | [12] -0.038 | [13] -0.033

MFSD10 (UniProt Q14728)
inactive: [1] -0.069 | [2] 0.02 | [3] -0.046 | [4] -0.035 | Nexturastat A -0.008 | vemurafenib 0.067 | [5] -0.027 | [6] -0.076 | givinostat -0.038 | barasertib -0.013 | [7] 0.093 | volasertib 0.069 | [8] -0.071 | epoxomicin -0.106 | [9] 0.025 | [10] 0.045 | [11] -0.004 | rosiglitazone 0.007 | [12] -0.205 | [13] 0.058

MED23 (UniProt Q9ULK4)
inactive: [1] 0.021 | [2] -0.016 | [3] 0.022 | [4] 0.008 | Nexturastat A 0.019 | vemurafenib 0.027 | [5] 0.033 | [6] 0.06 | givinostat 0.049 | barasertib 0.097 | [7] 0.037 | volasertib 0.016 | [8] 0.087 | epoxomicin 0.039 | [9] -0.038 | [10] 0.007 | [11] 0.078 | rosiglitazone 0.025 | [12] 0.014 | [13] -0.037

Retrieved one by one from the entries so far (two):
METTL7A (UniProt Q9H8H3)
inactive: [1] 0.026 | [2] -0.052 | [3] -0.01 | [4] -0.002 | Nexturastat A -0.025 | vemurafenib -0.023 | [5] 0 | [6] -0.003 | givinostat 0.007 | barasertib -0.067 | [7] 0.013 | volasertib 0.04 | [8] -0.012 | epoxomicin -0.006 | [9] 0 | [10] -0.019 | [11] 0.046 | rosiglitazone 0.017 | [12] -0.038 | [13] -0.033

MED23 (UniProt Q9ULK4)
inactive: [1] 0.021 | [2] -0.016 | [3] 0.022 | [4] 0.008 | Nexturastat A 0.019 | vemurafenib 0.027 | [5] 0.033 | [6] 0.06 | givinostat 0.049 | barasertib 0.097 | [7] 0.037 | volasertib 0.016 | [8] 0.087 | epoxomicin 0.039 | [9] -0.038 | [10] 0.007 | [11] 0.078 | rosiglitazone 0.025 | [12] 0.014 | [13] -0.037

(next part)

MFF (UniProt Q9GZY8)
active: [13] -0.386
inactive: [1] -0.036 | [2] 0.002 | [3] 0.039 | [4] 0.02 | Nexturastat A 0.006 | vemurafenib -0.013 | [5] 0.018 | [6] -0.117 | givinostat 0.033 | barasertib 0.036 | [7] -0.007 | volasertib 0 | [8] -0.046 | epoxomicin 0.037 | [10] 0.043 | [11] -0.031 | [12] 0.031

MEF2D (UniProt Q14814)
inactive: [1] -0.008 | [2] 0.018 | [3] -0.043 | [4] -0.022 | Nexturastat A -0.062 | vemurafenib 0 | [5] -0.002 | [6] 0.012 | givinostat -0.045 | barasertib 0.015 | [7] 0.07 | volasertib 0.024 | [8] 0.006 | epoxomicin 0.044 | [9] 0.029 | [10] -0.012 | [11] 0.033 | rosiglitazone 0.051 | [12] -0.069 | [13] -0.084

MEAF6 isoform 3 (UniProt Q9HAF1)
inactive: [1] 0.06 | [2] 0.035 | [3] -0.061 | [4] -0.066 | Nexturastat A 0.224 | vemurafenib -0.023 | [5] -0.031 | [6] 0.012 | givinostat 0.015 | barasertib -0.042 | [7] -0.078 | volasertib 0.075 | [8] 0.032 | epoxomicin -0.071 | [9] 0.006 | [10] 0.022 | [11] -0.065 | rosiglitazone -0.084 | [12] 0.051 | [13] -0.006

METTL14 (UniProt Q9HCE5)
inactive: [1] -0.006 | [2] 0.014 | [3] -0.03 | [4] -0.013 | Nexturastat A 0.046 | vemurafenib -0.017 | [5] 0.022 | [6] -0.006 | givinostat -0.096 | barasertib 0.018 | [7] -0.001 | volasertib -0.031 | [8] 0.074 | epoxomicin 0.035 | [9] 0.008 | [10] -0.036 | [11] -0.018 | rosiglitazone 0.038 | [12] -0.005 | [13] -0.004

MDN1 (UniProt Q9NU22)
inactive: [1] -0.023 | [2] -0.021 | [3] 0.034 | [4] 0.061 | Nexturastat A -0.009 | vemurafenib 0.02 | [5] 0.074 | [6] 0.027 | givinostat 0.083 | barasertib 0.047 | [7] -0.109 | [8] 0.093 | epoxomicin 0.006 | [10] -0.076 | [11] 0.031 | [12] -0.027
active: volasertib -0.334 | [13] -0.287

MDH1 isoform 3 (UniProt P40925)
inactive: [1] 0.024 | [2] 0.003 | [3] 0.045 | [4] 0.027 | Nexturastat A -0.043 | vemurafenib -0.004 | [5] -0.004 | [6] -0.058 | givinostat -0.015 | barasertib -0.002 | [7] -0.015 | volasertib 0.023 | [8] -0.024 | epoxomicin 0.037 | [9] 0.03 | [10] -0.008 | [11] -0.013 | rosiglitazone 0.014 | [12] -0.087 | [13] -0.018

METTL18 (UniProt O95568)
inactive: [1] -0.026 | [2] 0.018 | [3] -0.032 | [4] 0.028 | Nexturastat A -0.164 | vemurafenib 0.014 | [5] 0.05 | [6] -0.042 | givinostat -0.245 | barasertib 0.012 | [7] 0.02 | volasertib -0.159 | [8] 0.032 | epoxomicin -0.058 | [10] 0 | [11] 0.006 | [12] 0.005 | [13] 0.015

MECP2 isoform 2 (UniProt P51608)
inactive: [1] -0.029 | [2] 0 | [3] -0.041 | [4] -0.073 | Nexturastat A 0.13 | vemurafenib -0.079 | [5] -0.065 | [6] 0.199 | givinostat -0.026 | barasertib -0.089 | [7] 0.129 | volasertib 0.365 | [8] 0.021 | epoxomicin -0.16 | [9] 0.156 | [10] 0.167 | [11] -0.123 | rosiglitazone -0.113 | [12] 0.316 | [13] 0.23

MFAP1 (UniProt P55081)
inactive: [1] -0.143 | [2] 0.022 | [3] -0.033 | [4] 0.017 | Nexturastat A 0.039 | vemurafenib 0.032 | [5] -0.056 | [6] 0.134 | givinostat -0.005 | barasertib -0.04 | [7] -0.03 | volasertib -0.022 | [8] -0.011 | epoxomicin 0.035 | [9] 0.017 | [10] 0.007 | [11] 0.01 | rosiglitazone -0.027 | [12] 0.024 | [13] -0.016

METTL25 (UniProt Q8N6Q8)
inactive: [1] -0.162 | [3] -0.155 | [4] -0.204 | Nexturastat A 0.086 | vemurafenib 0.022 | [5] -0.248 | [6] -0.089 | givinostat 0.034 | barasertib 0.078 | volasertib -0.018 | [8] -0.081 | epoxomicin -0.063 | [9] -0.171 | [10] 0.066 | [11] -0.046 | rosiglitazone 0.112 | [12] 0.062 | [13] -0.106

MCU (UniProt Q8NE86)
active: volasertib -0.249 | [13] -0.23
inactive: [1] 0 | [2] 0.051 | [3] 0.094 | [4] 0.002 | Nexturastat A 0.002 | vemurafenib 0.026 | [5] 0.022 | [6] -0.075 | givinostat 0.013 | barasertib 0.014 | [7] -0.147 | [8] 0.014 | epoxomicin 0.075 | [10] -0.048 | [11] 0.011 | [12] -0.045
